PubChem BioAssay AID1259308 – NCATS – 2017
The whole screen tested about 59,000 reagents; shown is a part drawn at random. Over the whole deposit, about 1,510 (2.6%) got an active call. 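Calls use total luciferase alone and ignore viability, so some active siRNAs may act by altering cell number.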 Reagents against one gene are numbered here. Not all columns of the deposit are shown. No sequences are given here.

Assay: 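Genes whose loss raises luciferase production in HEK293 cells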 (primary screen)
Cells: human HEK293 embryonic kidney cells stably expressing firefly luciferase (HEK-CMV-Luc2-Hygro)
Reagent: single siRNA against human genes, 0.8 pmol siRNA per well
Time to read-out: 72 h
Read-out: 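Reporter luminescence and viable-cell signal on separate replicate plates, given as percent of non-targeting control and median/MAD z-scores, plus per-cell luciferase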
Scale: total luciferase, z-score and total luciferase, % of control: higher = more reporter protein produced
Call rule: 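An siRNA counts as active if its total luciferase robust z-score exceeds 3; genes with two or more such siRNAs out of three were retested with fresh siRNAs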
Calls: active = raised luciferase; inactive = no rise

no.	Gene	reagent	total luciferase, z-score	total luciferase, % of control	outcome
1	ARHGEF3 (GeneID 50650)	1	1.68	115	inactive
2	ARHGEF3 (GeneID 50650)	2	0.793	97.7	inactive
3	ARHGEF3 (GeneID 50650)	3	-0.355	74.8	inactive
4	TMEM171 (GeneID 134285)	1	-1.1	60.1	inactive
5	TMEM171 (GeneID 134285)	2	0.136	84.6	inactive
6	TMEM171 (GeneID 134285)	3	0.392	89.7	inactive
7	UBE3C (GeneID 9690)	1	1.24	107	inactive
8	UBE3C (GeneID 9690)	2	0.38	89.4	inactive
9	UBE3C (GeneID 9690)	3	1.34	108	inactive
10	PACSIN3 (GeneID 29763)	1	-0.47	72.5	inactive
11	PACSIN3 (GeneID 29763)	2	1.16	105	inactive
12	PACSIN3 (GeneID 29763)	3	-0.54	71.1	inactive
13	SNRPC (GeneID 6631)	1	1.8	118	inactive
14	SNRPC (GeneID 6631)	2	-0.404	73.8	inactive
15	SNRPC (GeneID 6631)	3	2.67	135	inactive
16	TRIM48 (GeneID 79097)	1	-0.723	67.5	inactive
17	TRIM48 (GeneID 79097)	2	-0.266	76.6	inactive
18	TRIM48 (GeneID 79097)	3	1.72	116	inactive
19	MYF6 (GeneID 4618)	1	-1.01	61.7	inactive
20	MYF6 (GeneID 4618)	2	-0.648	69	inactive
21	MYF6 (GeneID 4618)	3	-1.23	57.4	inactive
22	SLCO1B3 (GeneID 28234)	1	-2.06	41	inactive
23	SLCO1B3 (GeneID 28234)	2	3.36	149	active
24	SLCO1B3 (GeneID 28234)	3	0.555	92.9	inactive
25	COPZ1 (GeneID 22818)	1	0.659	95	inactive
26	COPZ1 (GeneID 22818)	2	3.06	143	active
27	COPZ1 (GeneID 22818)	3	-1.78	46.6	inactive
28	CTBP1-DT (GeneID 92070)	1	0.176	85.4	inactive
29	CTBP1-DT (GeneID 92070)	2	-0.111	79.7	inactive
30	CTBP1-DT (GeneID 92070)	3	0.203	85.9	inactive
31	KLHL38 (GeneID 340359)	1	-0.463	72.7	inactive
32	KLHL38 (GeneID 340359)	2	-0.226	77.4	inactive
33	KLHL38 (GeneID 340359)	3	0.435	90.5	inactive
34	RAPH1 (GeneID 65059)	1	-0.00455	81.8	inactive
35	RAPH1 (GeneID 65059)	2	1.26	107	inactive
36	RAPH1 (GeneID 65059)	3	2.73	136	inactive
37	DEPDC4 (GeneID 120863)	1	2.38	129	inactive
38	DEPDC4 (GeneID 120863)	2	-0.709	67.8	inactive
39	DEPDC4 (GeneID 120863)	3	0.281	87.5	inactive
40	RAP1BL (GeneID 643752)	1	0.878	99.3	inactive
41	RAP1BL (GeneID 643752)	2	-0.101	79.9	inactive
42	RAP1BL (GeneID 643752)	3	0.52	92.2	inactive
43	POLD1 (GeneID 5424)	1	-0.479	72.4	inactive
44	POLD1 (GeneID 5424)	2	0.885	99.5	inactive
45	POLD1 (GeneID 5424)	3	-0.458	72.8	inactive
46	CABP7 (GeneID 164633)	1	0.349	88.8	inactive
47	CABP7 (GeneID 164633)	2	-0.0477	80.9	inactive
48	CABP7 (GeneID 164633)	3	0.303	87.9	inactive
49	CFAP68 (GeneID 64776)	1	2.39	129	inactive
50	CFAP68 (GeneID 64776)	2	-0.159	78.7	inactive
51	CFAP68 (GeneID 64776)	3	0.84	98.6	inactive
52	KANSL1 (GeneID 284058)	1	-0.592	70.1	inactive
53	KANSL1 (GeneID 284058)	2	0.438	90.6	inactive
54	KANSL1 (GeneID 284058)	3	-0.574	70.5	inactive
55	WASH6P (GeneID 653440)	1	0.86	99	inactive
56	WASH6P (GeneID 653440)	2	0.163	85.1	inactive
57	WASH6P (GeneID 653440)	3	0.675	95.3	inactive

4 entries from above, set out differently.
{"Gene":"SLCO1B3 (GeneID 28234)","reagent":2,"total luciferase, z-score":3.36,"total luciferase, % of control":149,"outcome":"active"}
{"Gene":"SLCO1B3 (GeneID 28234)","reagent":3,"total luciferase, z-score":0.555,"total luciferase, % of control":92.9,"outcome":"inactive"}
{"Gene":"COPZ1 (GeneID 22818)","reagent":1,"total luciferase, z-score":0.659,"total luciferase, % of control":95,"outcome":"inactive"}
{"Gene":"COPZ1 (GeneID 22818)","reagent":2,"total luciferase, z-score":3.06,"total luciferase, % of control":143,"outcome":"active"}
